Results deposited as PubChem BioAssay AID1259254 (NCATS, 2017).
This is an unselected part of about 59,000 reagents. Of all reagents, about 1,550 (2.6%) are marked active. 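G2 share is only a proxy for re-replication; each gene was hit by three separate siRNAs, and active genes were retested.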 The raw values are shown without normalisation. The numbers tell different reagents against one gene apart. The record does not give: the amount of reagent.

Screen: 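Genome-wide screen for genes that prevent DNA re-replication in cancer cells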 (primary screen)
System: human HCT116 colorectal cancer cells
Reagents: single siRNA against human genes
Timing: 3 days
Read-out: 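Imaged Hoechst DNA stain sorts each cell into a cycle phase by DNA amount; per plate, G2 fraction set to 0% for non-targeting and 100% for GMNN siRNA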
Reading the numbers: G2 robust z-score and G2 cells, % of GMNN control: higher = more G2 cells, more excess DNA replication; raw share of cells in G2: higher = larger share of cells with G2 DNA content
Rule for the call: 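Active siRNAs have a G2 robust z of 5 or more median absolute deviations over the median, which in these data means about 38% or higher of GMNN control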

Target gene | siRNA no. | G2 robust z-score | G2 cells, % of GMNN control | raw share of cells in G2 (%) | call
GON7 | 1 | 0.787 | 8.51 | 6.94 | inactive
GON7 | 2 | -0.642 | -1.55 | 3 | inactive
GON7 | 3 | 1.29 | 12 | 6.06 | inactive
COXFA4L2 | 1 | 2.77 | 22.5 | 10.1 | inactive
COXFA4L2 | 2 | -0.0872 | 2.35 | 5.27 | inactive
COXFA4L2 | 3 | 2.16 | 18.1 | 13.1 | inactive
CD80 | 1 | -0.718 | -2.08 | 4.22 | inactive
CD80 | 2 | 0.198 | 4.36 | 6.59 | inactive
CD80 | 3 | 0.34 | 5.36 | 5.94 | inactive
TEF | 1 | -0.126 | 2.08 | 5.69 | inactive
TEF | 2 | 4.63 | 35.5 | 18.2 | inactive
TEF | 3 | 0.074 | 3.49 | 5.31 | inactive
COG2 | 1 | -1.16 | -5.18 | 4.29 | inactive
COG2 | 2 | 1.52 | 13.7 | 8.73 | inactive
COG2 | 3 | -0.433 | -0.0767 | 3.84 | inactive
GALNT14 | 1 | 0.556 | 6.88 | 6.72 | inactive
GALNT14 | 2 | -0.938 | -3.63 | 4.14 | inactive
GALNT14 | 3 | -1.49 | -7.53 | 1.68 | inactive
GUSB | 1 | 1.12 | 10.8 | 9.81 | inactive
GUSB | 2 | -0.0964 | 2.29 | 5.04 | inactive
GUSB | 3 | -0.999 | -4.06 | 3.57 | inactive
NSMCE2 | 1 | 0.401 | 5.79 | 5.75 | inactive
NSMCE2 | 2 | -1.01 | -4.17 | 1.43 | inactive
NSMCE2 | 3 | -0.389 | 0.229 | 3.34 | inactive
LINC02903 | 1 | -0.505 | -0.587 | 2.58 | inactive
LINC02903 | 2 | 2.01 | 17.1 | 9.73 | inactive
LINC02903 | 3 | -0.324 | 0.685 | 3.19 | inactive
HPR | 1 | 0.805 | 8.63 | 8.57 | inactive
HPR | 2 | -0.284 | 0.968 | 5.25 | inactive
HPR | 3 | -0.718 | -2.08 | 3.13 | inactive
CTDNEP1 | 1 | 0.681 | 7.76 | 7.33 | inactive
CTDNEP1 | 2 | -0.0256 | 2.79 | 5.15 | inactive
CTDNEP1 | 3 | -0.816 | -2.77 | 2.33 | inactive
SON | 1 | 2.34 | 19.4 | 13.7 | inactive
SON | 2 | 0.219 | 4.51 | 5.68 | inactive
SON | 3 | 0.869 | 9.08 | 6.56 | inactive
B3GALT9 | 1 | -0.434 | -0.0843 | 3.78 | inactive
B3GALT9 | 2 | -0.312 | 0.775 | 3.82 | inactive
B3GALT9 | 3 | -0.977 | -3.91 | 3.17 | inactive
ZHX1 | 1 | 5.1 | 38.9 | 22 | active
ZHX1 | 2 | -1.05 | -4.41 | 2.68 | inactive
ZHX1 | 3 | -0.944 | -3.67 | 2.61 | inactive
MUCL3 | 1 | 0.554 | 6.87 | 6.76 | inactive
MUCL3 | 2 | 0.883 | 9.18 | 6.01 | inactive
MUCL3 | 3 | -0.767 | -2.43 | 1.7 | inactive
CDC27 | 1 | 4.63 | 35.6 | 22 | inactive
CDC27 | 2 | 6.22 | 46.7 | 21.2 | active
CDC27 | 3 | 4.24 | 32.8 | 16.4 | inactive

An excerpt of the results above, as a working copy:
Target gene | siRNA no. | G2 robust z-score | G2 cells, % of GMNN control | raw share of cells in G2 (%) | call
GALNT14 | 3 | -1.49 | -7.53 | 1.68 | inactive
GUSB | 1 | 1.12 | 10.8 | 9.81 | inactive
GUSB | 2 | -0.0964 | 2.29 | 5.04 | inactive
GUSB | 3 | -0.999 | -4.06 | 3.57 | inactive
